Results as given in publication PMC10163288.
The list shows a part of the results.

B1: il2ra_site1_3nfp_normal_mot_HHH_b1_01158_af2_000000001_0001_41_55_H_._7bb551d7edbef81cbb21b497237068a3_0001_0001_0000500024_0000001_0 (protein)
chain: DLEEILQRIEEILEELNTKMARDLLKAIEFLRRAAPPEEVIKAILWAAEAAGDPEVVRLLREAVK
B2: il2ra_site2_2erj_normal_mot_90f6a21de4ed711cb697bb9f61d9c40c_0001_af2_000000135_0001_36_50_H_._HHH_b2_03327_0002_0000100003_0000001_0_1_af2pred_0001_af2pred_swa … (protein)
chain: SSSDREEVAERVVEELVKELGLDEEAQKLLEASARSAIEAGASPEEIELFLRLMAEFLLERLSSS
B3: il2ra_site1_3nfp_normal_mot_e63b485c515f68499f2ec453e144b8a1_0001_af2_000000158_0001_38_51_H_._HEEHE_3312_0001_0000100021_0000001_0 (protein)
chain: DQEEEAERLAELLARAANVDEVSVEQENGEITVTFKGNDLDVKHAAKAAEKAAEALGVPLEVTTE
B4: il2ra_site2_2erj_sap_27_mot_c2bf78bdce995293a161f7082e24b401_0001_af2_000000000_0001_17_32_H_._HHH_b1_00672_0001_0000500047_0000001_0_0001 (protein)
chain: DEAEEIVKEIRELVERDSEEARERVREILEEVDKDTELSRAVMELAREDPRLQRAFYLAMRIAFS
B5: il2ra_site2_2erj_sap_18_mot_87b7e031a888ead1881e674a44c3f2a3_0001_1_af2_000000022_0001_37_50_H_._HHH_b2_01082_0001_0000600018_0000001_1_0001 (protein)
chain: NLIERFAQRQLEDGVPPEDIARSLLIALKAQGVPPEEVREIVRKVLEELLGNPEEAEEVLKRAEK
B6: il2ra_site2_3nfp_normal_mot_HHH_b1_05437_000000005_0001_40_57_H_._HHH_b2_00498_0001_0000300006_0000001_0 (protein)
chain: SSSSDEEQEEVEELLEEAKRIEDPEERRRVLAEATNIAYEAGDFEAFALVAEVLTELEHRSSSSS
B7: il2ra_site2_3nfp_normal_mot_HHH_b1_02297_000000279_0001_41_58_H_._HHH_b2_07462_af2_0001_0000200007_0000001_0_af2pred_0001_af2pred_swapped (protein)
chain: SSSSDEEIEEEVEKLLEEARKIEDEEEVKQILAKAALLAAEANNEELFAAVNEAFFELVASSSSS
B8: il2ra_site2_2erj_sap_30_mot_HHH_b1_08096_000000157_0001_36_51_H_._HHH_b1_06625_0001_0000500025_0000001_0_0001 (protein)
chain: SSSSSEKLHELYELLVILLRLVWEGDEEEFERVLEEAEELAEELNSRSAEEHLKLLKEQLSSSSS
B9: il2ra_site2_3nfp_normal_mot_HHH_b1_02096_000000221_0001_22_38_H_._HHH_b2_01811_0001_0000200024_0000001_1 (protein)
chain: SSSSSDELEALLQSAENLAKRIEDPEERRELEELIEELKEEGDPELAFELYELVAEILLGSSSSS
B10: il2ra_site2_2erj_normal_mot_HHH_eva_0142_000000014_0001_43_61_H_._HHH_b1_01907_0001_0000500019_0000001_0 (protein)
chain: SSSSSSDLEEEIEELIERAKKVEDPARAASILIEAVLLALELGNEELFREVSRLFEEVYSSSSSS
B11: il2ra_site2_3nfp_sap_27_mot_HHH_b1_07764_000000013_0001_24_39_H_._0298092c85f5e659a7318f113fe2d0a1_0001_0001_0000300021_0000001_0_0001_1 (protein)
chain: SSSSDEEVQEEVERLLEEAKHIEDPFELFAVLADARALAVQANDEELERLVARVSLELMQHSSSS
B12: il2ra_site1_3nfp_normal_mot_HHH_b2_05589_af2_000000178_0001_1_18_H_._HHH_b2_04217_af2_0001_0000100002_0000001_0_af2pred_0001_af2pred_1 (protein)
chain: SSSSSEELRELSELDRRLKEAIKEGDKEEAERIAEEAERLAEELGDELAQRLIRALLRLASSSSS
B13: il2ra_site1_2b5i_sap_15_mot_a1647c6a1bc1795bd61f8ac90a0f45d0_0001_1_000000140_0001_54_65_H_._HHH_b1_06101_af2_0001_0000100002_0000001_0_0001_af2pred_dldesign_0_ … (protein)
chain: SSSSSSDIEALIARAKELAAAGRRREALELLEEAYKLASAADDDELQDEIEALARELASSSSSSS
B14: il2ra_site2_2erj_sap_20_mot_HHH_b1_06196_000000171_0001_40_57_H_._HHH_b2_00375_af2_0001_0000300015_0000001_0_0001 (protein)
chain: SSSSSSVEEEVRKLLEEAERLYEEGNLHEVFRLAVEALRLASEHNNDELLEEIAEVVERLSSSSS
B15: il2ra_site1_3nfp_normal_mot_HHH_b1_01335_af2_000000258_0001_39_53_H_._HHH_b2_07455_0001_0000100003_0000001_0_af2pred_dldesign_0_af2pred (protein)
chain: SSSSSSAESKEALKLFEQASKEKDRKKAKEILEKALELAKKGGAKLLVKFIERCIKSLLSSSSSS
B16: il2ra_site2_3nfp_sap_21_mot_HHH_b1_04032_000000208_0001_43_56_H_._HHH_b1_03418_0001_0000100007_0000001_0_0001_af2pred_0001_af2pred_1_swapped (protein)
chain: SSSSSEAEEELERLLRELEELLKRDPEEARKLSEEASKLAREANDEEIFLLLLEIYRRLQSSSSS
B17: il2ra_site1_2b5i_sap_15_mot_HHH_b1_01540_000000292_0001_42_56_H_._HHH_b2_03309_0001_0000600018_0000001_1_0001_af2pred_dldesign_0_af2pred (protein)
chain: SSSSDPYDRIYDLYKEILKLIKQHKYEEASKLLKEALALAEALGDEKLVAELKWLEEHFKSSSSS
B18: il2ra_site1_3nfp_normal_mot_ems_3hC_836_0002_000000087_0001_24_40_H_._HHH_b1_02452_0001_0000300040_0000001_0_af2pred_0001_af2pred (protein)
chain: SSSSSDVKREAWRLLEEALKALLNGNPEEARKLLEEALELAEEAGSELLEKMIREAEEVLSSSSS
B19: il2ra_site2_3nfp_normal_mot_HHH_b2_00102_000000046_0001_18_35_H_._HHH_b1_05569_0001_0000600042_0000001_0_af2pred_0001_af2pred (protein)
chain: SSSSSSDLADEARKALRIAWERGDLRTAARLFLLSRKVTEEGDPELEEELEELIRELLSSSSSSS
B20: il2ra_site2_3nfp_sap_21_mot_HHH_b1_00660_af2_000000199_0001_40_57_H_._HHH_b2_02243_0001_0000400028_0000001_0_0001 (protein)
chain: SSSSDKAEEYARIALELAKRALEDGDPESAKRILETALLAARDQGDPELQEEIERLLEEISSSSS
B21: il2ra_site1_3nfp_normal_mot_HHH_b1_01788_af2_000000237_0001_41_55_H_._HHH_b2_06615_0001_0000500018_0000001_0 (protein)
chain: SSSSSDKEVWRRVSELLHRAAKVSEEETEQLLREAKELAEEANDPSVKRAVEFYERILRRSSSSS
B22: il2ra_site1_3nfp_normal_mot_HHH_b2_08194_000000107_0001_25_41_H_._HHH_b2_00712_0001_0000300009_0000001_0_af2pred_0001_af2pred_1 (protein)
chain: SSSSSDQEELEELAEEAKELAKEIEDEKNRRFLEEVAEALERSGNPRYFKSLEIALRLAESSSSS
B23: il2ra_site2_3nfp_normal_mot_HHH_b1_04781_af2_000000057_0001_1_18_H_._HHH_b1_08047_af2_0001_0000100001_0000001_0 (protein)
chain: SSSSDEEQERVIELAIESLEALGNEELAEEARELLEEFREKGDPRVLLEVYKLLREAYHLSSSSS
B24: il2ra_site2_2erj_sap_18_mot_HHH_b2_02558_af2_000000162_0001_1_21_H_._22aa8d8ad8dce7f663ea8fa348a52261_0001_0001_0000100003_0000001_0_0001 (protein)
chain: SSSSDEESEEIREEIEELFREARERNDLHLLYEIAVRVMHLAHRLNDPELHRLTRKIAEEASSSS

Each binder was assayed against il2ra, P01589 (assay: yeast display titration).

Apparent Kd, inactive:
B1 no binding seen
B2 no binding seen
B3 no binding seen
B4 no binding seen
B5 no binding seen
B6 no binding seen
B7 no binding seen
B8 no binding seen
B9 no binding seen
B10 no binding seen
B11 no binding seen
B12 no binding seen
B13 no binding seen
B14 no binding seen
B15 no binding seen
B16 no binding seen
B17 no binding seen
B18 no binding seen
B19 no binding seen
B20 no binding seen
B21 no binding seen
B22 no binding seen
B23 no binding seen
B24 no binding seen

Pulled one by one from the entries so far, two records:
Apparent Kd, inactive:
B5 no binding seen
B6 no binding seen
